US20110104121A1, “Female Reproductive Tract and Anal Prophylaxes” (priority 2008, published 2011)
Marks after values point to notes of the source that are not given here.

Test: systemic inflammatory response to E. coli endotoxin after hydrocortisone pre-treatment in volunteers
Format: in vivo, human
Conditions: for 4 Hour CD14+ / 4 Hour MO / 4 Hour PMN / 4 Hour WBC: 4 hours after LPS; for 24 Hour CRP: 24 hours after LPS; for PEAK HR: after 2 ng/kg LPS; for PEAK T: after LPS; for BASE CD14+ / BASE CRP / BASE MO / BASE T / BASE WBC / Base PMN / BASE HR: before LPS
Description: Materials and Methods. Participants (n=36) were healthy male and female volunteers who were taking no chronic medications (other than oral contraceptives) and who were between the ages of 18 and 55.
On Day 1 of the study, participants were randomized in a double-blind manner to a Control Group, a Stress Group or a Pharm Group. A peripheral intravenous catheter was inserted in a hospital outpatient facility where participants remained during the day. For six hours, Control Group participants received intravenous saline at […] by infusion pump; Stress Group participants received 1.5 μg/kg/minute hydrocortisone (SOLUCORTEF®, Upjohn) in normal saline at 10 ml/hour, and Pharm Group participants received 3.0 μg/kg/minute hydrocortisone in normal saline at 10 ml/hour. The following day (Day 2), participants were admitted to an acute care facility where a peripheral intravenous catheter was again inserted in a proximal arm vein. Continuous electrocardiographic and pulse oximetry measurements were initiated; blood pressure and core temperature were measured every 15 minutes for the next five hours and every 30 minutes for the next 4 hours. Participants received 10 ml/kg lactated Ringer's solution intravenously over the first 2 hours after which the infusion was decreased to 1.5 ml/kg/hour. After the first hour, participants were administered 2 ng/kg E. coli endotoxin intravenously over 2 minutes. Participants remained in the acute care facility for remainder of the day with continuous nursing care and under the direct supervision of a physician. The intravenous catheter was removed after 9 hours. The following day (Day 3) and 2 days later (Day 5), repeat blood samples were obtained by venipuncture.
Salivary free cortisol measurements were made on Day 1 to compare the in vivo cortisol pre-treatment with laboratory reports that typically test the effects of free glucocorticoid concentrations. On Day 2 of the study, total plasma cortisol was measured to allow for comparison with the many clinical reports that have assessed these hormones during experimental endotoxemia and in endotoxemic patients. For salivary free cortisol measurements, saliva samples were collected with a […]™ collection device and stored at −80° C. until analysis by SALIMETRICS® Expanded Range High Sensitivity Salivary Cortisol Enzyme Immunoassay Kit (State College, Pa.). The analytical sensitivity of this assay is 3 ng/dL. For total cortisol, plasma was separated from heparinized whole blood and stored at −80° C. until analysis for plasma cortisol on an […]® 1000 analyzer using a Siemens Cortisol kit (Los Angeles, Calif.). The analytical sensitivity of this assay is 0.2 μg/dL. All adrenocorticotropic hormone (ACTH) measurements were performed on the […]® 1000 analyzer using a Siemens ACTH kit (Los Angeles, Calif.). The analytical sensitivity of this assay is 9 pg/mL. C-reactive protein (CRP) measurements were performed on the Roche P Module using the Roche High Sensitivity CRP kit (Indianapolis, Ind.). Analytical sensitivity of this assay is 0.1 mg/L. Complete blood counts were performed on the ADVIA 120® Hematology Analyzer using Siemens reagents (Ramsey, Minn.).
Plasma samples were collected and frozen at −80° C. for batched measurement of TNFalpha, IL-6 and IL-10 concentrations. TNFalpha was measured using a TNFalpha sandwich ELISA (paired antibodies; BD Biosciences Pharmingen, San Diego, Calif.). IL-6 levels were determined using an IL-6 ELISA kit (Peprotech, Rocky Hill, N.J.). IL-10 was measured using an IL-10 ELISA kit (Biosource, Camarillo, Calif.). Further cytokine testing was completed on frozen samples using multiplex immunobead technology (Luminex Corp.) which combines the principle of a sandwich immunoassay with fluorescent bead-based technology, allowing individual and multiplex analysis of multiple analytes in a single microtiter well. […]

C[C@]12CCC(=O)C=C1CC[C@@H]1[C@@H]2[C@@H](O)C[C@@]2(C)[C@H]1CC[C@]2(O)C(=O)CO [hydrocortisone]
4 Hour CD14+ (Pharm 3 μg/kg/min): 17.6* % PBMNCs | 4 Hour MO (Pharm 3 μg/kg/min): 85 per ml | 4 Hour PMN (Pharm 3 μg/kg/min): 8390 per ml | 4 Hour WBC (Pharm 3 μg/kg/min): 9.1 × 10^3 per ml | 24 Hour CRP (Pharm 3 μg/kg/min): 44.0 mg/L | PEAK HR (Pharm 3 μg/kg/min): 106 bpm | PEAK T (Pharm 3 μg/kg/min): 38.1 °C | BASE CD14+ (Pharm 3 μg/kg/min): 17.2 % PBMNCs | BASE CRP (Pharm 3 μg/kg/min): 1.8 mg/L | BASE MO (Pharm 3 μg/kg/min): 264 per ml | BASE T (Pharm 3 μg/kg/min): 36.5 °C | BASE WBC (Pharm 3 μg/kg/min): 7.0 × 10^3 per ml | Base PMN (Pharm 3 μg/kg/min): 4842 per ml | BASE HR (Pharm: hydrocortisone 3 μg/kg/min iv 6 hours on Day 1): 70 bpm | 4 Hour CD14+ (Stress 1.5 μg/kg/min): 17.9* % PBMNCs | 4 Hour MO (Stress 1.5 μg/kg/min): 112 per ml | 4 Hour PMN (Stress 1.5 μg/kg/min): 8353 per ml | 4 Hour WBC (Stress 1.5 μg/kg/min): 9.1 × 10^3 per ml | 24 Hour CRP (Stress 1.5 μg/kg/min): 51.0 mg/L | PEAK HR (Stress 1.5 μg/kg/min): 111 bpm | PEAK T (Stress 1.5 μg/kg/min): 38.4 °C | BASE CD14+ (Stress 1.5 μg/kg/min): 17.1 % PBMNCs | BASE CRP (Stress 1.5 μg/kg/min): 2.6 mg/L | BASE MO (Stress 1.5 μg/kg/min): 297 per ml | BASE T (Stress 1.5 μg/kg/min): 36.6 °C | BASE WBC (Stress 1.5 μg/kg/min): 6.8 × 10^3 per ml | Base PMN (Stress 1.5 μg/kg/min): 4312 per ml | BASE HR (Stress: hydrocortisone 1.5 μg/kg/min iv 6 hours on Day 1): 73 bpm
